Measurements reported in article doi:10.1101/2021.11.08.466737.
Results are given in words; binding and its absence hold for the method and conditions named. Where a sequence is shown, tags or fusion partners need not be part of it.

Tests used:
[1] = molecular target: His-SUMO-Mis18α_(188-233 I201A/L205A) (human) (UniProt Q9NYP9); assay: SEC-MALS
[2] = molecular target: His-SUMO-Mis18α_(188-233 L212A/L215A/L219A) (human) (UniProt Q9NYP9); assay: SEC-MALS

Q: Which binding [1] does the source give for EDKELFNLESRVEAEKSATQMEDVLKALQMKLWEAESKLSFATCKS (domain or fragment, UniProt Q9NYP9 188-233) [His-SUMO-Mis18α_(188-233 I201A/L205A)] here?
A: no binding (tested: 2–6 mg/ml injected)

Q: For EDKELFNLESRVEIEKSLTQMEDVAKAAQMKAWEAESKLSFATCKS (domain or fragment, UniProt Q9NYP9 188-233) [His-SUMO-Mis18α_(188-233 L212A/L215A/L219A)], which binding [2] is on record?
A: no binding (tested: 2–6 mg/ml injected)
